Results reported in patent US20030119748A1 (Idun Pharmaceuticals, Inc., priority 1996, published 2003).
Some results were stated once for a whole list of compounds, not compound by compound. At least one structure is not confirmed: it was looked up by name or label, or the drawing left a doubt.

Biological target: T1, mICE (Mus musculus, UniProt P29452)
T1 sequence (P29452 119-402): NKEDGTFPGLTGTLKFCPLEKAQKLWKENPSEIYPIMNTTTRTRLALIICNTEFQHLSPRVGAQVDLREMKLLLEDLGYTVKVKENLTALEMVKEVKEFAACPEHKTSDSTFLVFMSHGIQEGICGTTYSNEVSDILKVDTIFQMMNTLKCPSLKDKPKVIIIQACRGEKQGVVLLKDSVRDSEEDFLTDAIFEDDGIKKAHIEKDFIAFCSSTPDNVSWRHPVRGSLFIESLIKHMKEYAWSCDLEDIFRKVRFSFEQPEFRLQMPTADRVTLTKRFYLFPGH
Experiment: Dissociation constant Ki for irreversible inhibitors, continuous assay (Example 1B)
Assay type: biochemical
Settings: compounds of Formula B and Formula C, procedure of Example 1B
Text: B. Determination of the Dissociation Constant K1 and Irreversible Rate Constant k3 for Irreversible Inhibitors
For the irreversible inhibition of a ICE/ced-3 Family Protease enzyme with a competitive irreversible inhibitor; using the model represented by the following formulas: [drawing 4]
The product formation at time t may be expressed as: [drawing 5]
where E, I, EI, and E-I denote the active enzyme, inhibitor, non-covalent enzyme-inhibitor complex and covalent enzyme-inhibitor adduct, respectively. The K1 value is the overall dissociation constant of reversible binding steps, and k3 is the irreversible rate constant. The [S] and Ks values are the substrate concentration and the dissociation constant of the substrate bound to the enzyme, respectively. [E]^T is the total enzyme concentration.
The above equations were used to determine the K1 and k3 values of a given inhibitor bound to a ICE/ced-3 family protease. Thus, a continuous assay was run for sixty minutes at various concentrations of the inhibitor and the substrate. The assay was formulated essentially the same as described in Example 1A above, except that the reaction was initiated by adding the enzyme to the substrate-inhibitor mixture. The K1 and k3 values were obtained by simulating the product AMC formation as a function of time according to Equation 1. The reference compound for this assay was Cbz-ValAlaAsp-CH2F.

With `Cc1c(C(=O)N[C@H](C(=O)NC(CC(=O)O)C(=O)CF)C(C)C)n(C)c2ccccc12` (some centres unmarked) [Example 43, N-[(1,3-Dimethylindole-2-Carbonyl)Valinyl]-3-Amino-4-Oxo-5-Fluoropentanoic Acid] the Ki was less than 5 µM.

`CC(C)[C@H](NC(=O)c1c(Cl)c2ccccc2n1C)C(=O)NC(CC(=O)O)C(=O)CF` (some centres unmarked) [Example 46, N-[(3-Chloro-1-Methylindole-2-Carbonyl)Valinyl]-3-Amino-4-Oxo-5-Fluoropentanoic Acid] showed a Ki of less than 5 µM.

Compound `CC(C)[C@H](NC(=O)c1c(Cl)c2cc(F)ccc2n1C)C(=O)NC(CC(=O)O)C(=O)CF` (some centres unmarked) [Example 49, N-[(3-Chloro-5-Fluoro-1-Methylindole-2-Carbonyl)Valinyl]-3-Amino-4-Oxo-5-Fluoropentanoic Acid] has a Ki of less than 5 µM.

Compound `CC(C)C(NC(=O)c1cc2ccccc2n1CCCc1ccccc1)C(=O)NC(CC(=O)O)C(=O)CF` (centres unmarked) [Example 52, N-[(1-(3′-Phenylpropyl)Indole-2-Carbonyl)Valinyl]-3-Amino-4-Oxo-5-Fluoropentanoic Acid] has a Ki of less than 5 µM.

With `CC(C)[C@H](NC(=O)c1cc2ccccc2n1-c1ccccc1)C(=O)NC(CC(=O)O)C(=O)CF` (some centres unmarked) [Example 55, N-[(1-Phenylindole-2-Carbonyl)Valinyl]-3-Amino-4-Oxo-5-Fluoropentanoic Acid] the Ki was less than 5 µM.

In the case of `CC(C)[C@H](NC(=O)c1cc2ccccc2n1CC(=O)O)C(=O)NC(CC(=O)O)C(=O)CF` (some centres unmarked) [Example 58, N-[(1-(Carboxymethyl)Indole-2-Carbonyl)Valinyl]-3-Amino-4-Oxo-5-Fluoropentanoic Acid], the Ki is reported as less than 5 µM.

Compound `CC(C)[C@H](NC(=O)c1cc2ccccc2n1C)C(=O)NC(CC(=O)O)C(=O)CF` (some centres unmarked) [Example 61, N-[(1-Methylindole-2-carbonyl)valinyl]-3-amino-4-oxo-5-fluoropentanoic Acid] has a Ki of less than 5 µM and a Ki (listed as compound 61) of less than 1 µM.

In the case of `Cc1c(C(=O)N[C@H](C(=O)NC(CC(=O)O)C(=O)CF)C(C)C)n(C)c2ccc(F)cc12` (some centres unmarked) [Example 62, N-[(1,3-Dimethyl-5-fluoroindole-2-carbonyl)valinyl]-3-amino-4-oxo-5-fluoropentanoic Acid], the Ki is reported as less than 5 µM and the Ki (listed as compound 62) is reported as less than 1 µM.

Compound `C=CCCn1c(C(=O)NC(C(=O)NC(CC(=O)O)C(=O)CF)C(C)C)cc2ccccc21` (centres unmarked) [Example 63] has a Ki of less than 5 µM and a Ki (listed as compound 63) of less than 1 µM.

In the case of `CC(C)C(NC(=O)c1cc2cc(F)ccc2n1C)C(=O)NC(CC(=O)O)C(=O)CF` (centres unmarked) [Example 64], the Ki is reported as less than 5 µM and the Ki (listed as compound 64) is reported as less than 1 µM.

`CC(C)Cc1c(C(=O)N[C@H](C(=O)NC(CC(=O)O)C(=O)CF)C(C)C)n(C)c2ccccc12` (some centres unmarked) [Example 65, N-[(1-Methyl-3-isobutylindole-2-carbonyl)valinyl]-3-amino-4-oxo-5-fluoropentanoic Acid] gave a Ki of less than 5 µM.

For `CC(C)C(NC(=O)c1c(CCc2ccccc2)c2ccccc2n1C)C(=O)NC(CC(=O)O)C(=O)CF` (centres unmarked) [Example 66, N-[(1-Methyl-3-phenethylindolo-2-carbonyl)valinyl]-3-amino-4-oxo-5-fluoropentanoic Acid], the Ki was less than 5 µM and the Ki (listed as compound 66) was less than 1 µM.

Work on `CC(C)C(NC(=O)c1cc2cc(OCc3ccccc3)ccc2n1C)C(=O)NC(CC(=O)O)C(=O)CF` (centres unmarked) [Example 67, N-[(1-Methyl-5-Obenzylindole-2-carbonyl)valinyl]-3-amino-4-oxo-5-fluoropentanoic Acid] yielded a Ki of less than 5 µM and a Ki (listed as compound 67) of less than 1 µM.

`Cc1c(C(=O)N[C@H](C(=O)NC(CC(=O)O)C(=O)COC(=O)c2c(Cl)cccc2Cl)C(C)C)n(C)c2ccccc12` (some centres unmarked) [Example 70, N-[N-(1,3-Dimethyl-indole-2-carbonyl)-Valinyl]-3-amino-5-(2,6-dichlorobenzoyl)oxy-4-oxo-pentanoic Acid] gave a Ki of no more than 8 µM.

`Cc1c(C(=O)NC(C(=O)NC(CC(=O)O)C(=O)COc2cc3ccccc3cc2C(=O)Nc2ccccc2)C(C)C)n(C)c2ccccc12` (centres unmarked) [Example 73, N-(1,3-Dimethyl-indole-2-carbonyl)-Valinyl-3-amino-5-(3-(N-phenyl)aminocarbonyl-2-naphthyl)oxy-4-oxo-pentanoic Acid] was tested, and the Ki was no more than 8 µM.

`Cc1c(C(=O)NC(C(=O)NC(CC(=O)O)C(=O)COc2ccccc2C(N)=O)C(C)C)n(C)c2ccccc12` (centres unmarked) [Example 74, N-(1,3-Dimethyl-indole-2-carbonyl)-Valinyl-3-amino-5-(2-aminocarbonyl-1-phenyl)oxy-4-oxo-pentanoic Acid] gave a Ki of no more than 8 µM.

`Cc1c(C(=O)NC(C(=O)NC(CC(=O)O)C(=O)COP(C)(C)=O)C(C)C)n(C)c2ccccc12` (centres unmarked) [Example 75, N-(1,3-Dimethyl-indole-2-carbonyl)-Valinyl-3-amino-5-(dimethylphosphinyl)oxy-4-oxo-pentanoic Acid] was tested, and the Ki was no more than 8 µM.
